Common to all, as to experiment: pull-down; GST-Sgs1 fragments on glutathione magnetic beads; 10 mg benzonase-treated yeast lysate with VSV-tagged Rad51, 120 min at room temperature; Rad51 buffer (50 mM Tris pH 7.5, 0.01% NP-40, 5 mM beta-glycerol phosphate, 2 mM magnesium acetate, 120 mM NaCl); western blot with antibodies against GST and VSV; only the target purified
(In general: Immunoblotting shows a protein as a band on a membrane.)

Sequences of proteins named here, by UniProt entry; tags and fusion partners are left off.
UniProt P25454: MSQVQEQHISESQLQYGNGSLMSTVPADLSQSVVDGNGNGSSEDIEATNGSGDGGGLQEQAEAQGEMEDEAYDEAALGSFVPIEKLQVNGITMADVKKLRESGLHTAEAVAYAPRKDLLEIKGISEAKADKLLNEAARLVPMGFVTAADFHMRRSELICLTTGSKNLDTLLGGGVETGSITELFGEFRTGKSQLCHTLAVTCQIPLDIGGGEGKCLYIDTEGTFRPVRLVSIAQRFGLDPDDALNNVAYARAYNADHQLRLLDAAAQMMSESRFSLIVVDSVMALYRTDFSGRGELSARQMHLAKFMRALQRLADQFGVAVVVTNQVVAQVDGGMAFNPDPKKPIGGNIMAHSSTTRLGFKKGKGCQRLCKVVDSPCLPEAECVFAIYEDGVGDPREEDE

The target in experiment [1] is T1, GST-Sgs1^647–1447 (S. cerevisiae) (UniProt P35187).
T1 sequence: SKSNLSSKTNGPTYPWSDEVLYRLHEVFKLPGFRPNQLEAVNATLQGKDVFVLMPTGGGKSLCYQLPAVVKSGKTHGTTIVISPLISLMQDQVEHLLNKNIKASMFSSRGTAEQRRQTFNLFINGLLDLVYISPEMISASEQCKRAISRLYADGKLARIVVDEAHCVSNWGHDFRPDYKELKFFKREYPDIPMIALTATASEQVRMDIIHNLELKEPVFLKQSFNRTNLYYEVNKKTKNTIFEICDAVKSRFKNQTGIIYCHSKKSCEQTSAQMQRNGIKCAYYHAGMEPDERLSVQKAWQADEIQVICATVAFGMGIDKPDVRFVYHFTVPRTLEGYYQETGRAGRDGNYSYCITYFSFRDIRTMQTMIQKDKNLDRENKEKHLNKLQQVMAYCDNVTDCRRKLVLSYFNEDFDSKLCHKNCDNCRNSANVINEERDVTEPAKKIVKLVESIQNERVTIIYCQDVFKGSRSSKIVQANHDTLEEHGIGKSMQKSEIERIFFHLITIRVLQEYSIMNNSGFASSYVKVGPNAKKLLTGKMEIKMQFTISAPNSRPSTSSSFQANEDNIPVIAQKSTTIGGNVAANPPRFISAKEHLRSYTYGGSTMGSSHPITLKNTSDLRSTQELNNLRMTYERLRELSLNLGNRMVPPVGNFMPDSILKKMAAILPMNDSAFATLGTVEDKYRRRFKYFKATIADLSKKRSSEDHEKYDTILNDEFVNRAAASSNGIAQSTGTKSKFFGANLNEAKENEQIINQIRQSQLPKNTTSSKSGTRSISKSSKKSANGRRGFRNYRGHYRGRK

Experiment [2] deals with T2, GST-Sgs1 fragment with 260 C-terminal residues deleted (S. cerevisiae) (UniProt P35187).
T2 sequence: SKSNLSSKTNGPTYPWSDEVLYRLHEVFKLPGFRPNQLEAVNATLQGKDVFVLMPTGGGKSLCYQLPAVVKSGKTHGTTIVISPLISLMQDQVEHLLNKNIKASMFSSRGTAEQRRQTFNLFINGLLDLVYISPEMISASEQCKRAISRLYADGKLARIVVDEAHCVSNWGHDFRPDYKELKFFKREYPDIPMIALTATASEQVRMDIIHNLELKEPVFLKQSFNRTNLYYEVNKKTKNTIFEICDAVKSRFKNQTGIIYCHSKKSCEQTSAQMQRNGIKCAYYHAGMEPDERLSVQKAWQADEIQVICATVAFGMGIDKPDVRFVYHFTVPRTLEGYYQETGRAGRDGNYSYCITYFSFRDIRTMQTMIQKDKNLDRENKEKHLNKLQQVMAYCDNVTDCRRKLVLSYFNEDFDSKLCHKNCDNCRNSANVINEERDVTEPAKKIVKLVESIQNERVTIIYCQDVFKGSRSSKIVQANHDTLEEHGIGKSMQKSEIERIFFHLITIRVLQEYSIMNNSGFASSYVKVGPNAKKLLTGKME

Experiment [3] has as its target T3, GST-Sgs1 fragment with 240 C-terminal residues deleted (S. cerevisiae) (UniProt P35187).
T3 sequence: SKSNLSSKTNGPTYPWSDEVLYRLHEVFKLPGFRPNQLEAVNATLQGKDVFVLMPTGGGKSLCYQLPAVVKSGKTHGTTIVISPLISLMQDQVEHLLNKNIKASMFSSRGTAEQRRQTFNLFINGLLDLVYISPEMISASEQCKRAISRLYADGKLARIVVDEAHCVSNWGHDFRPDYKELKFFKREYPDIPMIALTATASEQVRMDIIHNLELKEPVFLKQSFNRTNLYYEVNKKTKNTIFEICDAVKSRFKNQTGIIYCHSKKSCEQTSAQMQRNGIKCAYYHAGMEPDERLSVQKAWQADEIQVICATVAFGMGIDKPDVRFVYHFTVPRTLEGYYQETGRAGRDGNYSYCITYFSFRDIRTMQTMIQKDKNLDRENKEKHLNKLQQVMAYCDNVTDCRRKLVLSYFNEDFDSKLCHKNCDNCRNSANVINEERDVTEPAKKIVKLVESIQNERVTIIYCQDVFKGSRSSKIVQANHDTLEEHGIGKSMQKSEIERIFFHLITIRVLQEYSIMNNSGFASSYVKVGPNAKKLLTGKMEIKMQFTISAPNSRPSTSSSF

Drawing on PMC5753853, this text covers binding for 1 substance.

Results are given in words; binding and its absence hold for the method and conditions named. In cells and extracts the contact can be indirect. Some binding calls cover weakened binding; strength is not graded here. Tags and fused reporters may be left off the sequences shown.

Turning to “Rad51-V5-3XVSV (from UniProt P25454 1-400)”, the binding result in experiment [1] was “binds”; in experiment [2], “no binding”; in experiment [3] it was “binds”.
